Results on three substances are retold here after paper PMC11653682.

Sequences of proteins named here, by UniProt entry; tags and fusion partners are left off. Residues count along the entry.
UniProt O88763: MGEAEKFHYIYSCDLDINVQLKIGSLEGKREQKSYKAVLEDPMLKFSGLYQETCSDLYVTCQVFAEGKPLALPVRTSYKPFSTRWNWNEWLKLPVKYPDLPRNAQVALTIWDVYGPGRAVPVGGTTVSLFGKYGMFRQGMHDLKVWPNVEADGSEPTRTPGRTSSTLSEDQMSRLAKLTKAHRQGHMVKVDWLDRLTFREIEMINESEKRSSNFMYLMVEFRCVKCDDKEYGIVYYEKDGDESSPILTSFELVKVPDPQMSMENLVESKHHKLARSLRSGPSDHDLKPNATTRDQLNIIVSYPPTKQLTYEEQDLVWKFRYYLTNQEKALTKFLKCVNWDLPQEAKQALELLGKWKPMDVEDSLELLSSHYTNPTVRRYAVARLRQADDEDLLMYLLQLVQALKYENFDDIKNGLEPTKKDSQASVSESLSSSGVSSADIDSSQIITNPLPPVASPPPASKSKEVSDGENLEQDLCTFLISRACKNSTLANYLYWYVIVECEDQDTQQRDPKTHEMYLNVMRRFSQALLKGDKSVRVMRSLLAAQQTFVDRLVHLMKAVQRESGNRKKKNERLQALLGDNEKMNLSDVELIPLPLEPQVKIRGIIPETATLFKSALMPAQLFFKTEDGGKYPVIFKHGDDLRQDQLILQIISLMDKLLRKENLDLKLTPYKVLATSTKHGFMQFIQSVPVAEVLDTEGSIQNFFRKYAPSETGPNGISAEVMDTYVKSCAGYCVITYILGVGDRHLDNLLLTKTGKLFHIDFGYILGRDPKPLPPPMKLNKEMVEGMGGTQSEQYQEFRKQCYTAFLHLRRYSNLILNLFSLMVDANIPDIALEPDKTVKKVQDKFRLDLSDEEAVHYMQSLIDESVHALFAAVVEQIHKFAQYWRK
UniProt Q91XJ1: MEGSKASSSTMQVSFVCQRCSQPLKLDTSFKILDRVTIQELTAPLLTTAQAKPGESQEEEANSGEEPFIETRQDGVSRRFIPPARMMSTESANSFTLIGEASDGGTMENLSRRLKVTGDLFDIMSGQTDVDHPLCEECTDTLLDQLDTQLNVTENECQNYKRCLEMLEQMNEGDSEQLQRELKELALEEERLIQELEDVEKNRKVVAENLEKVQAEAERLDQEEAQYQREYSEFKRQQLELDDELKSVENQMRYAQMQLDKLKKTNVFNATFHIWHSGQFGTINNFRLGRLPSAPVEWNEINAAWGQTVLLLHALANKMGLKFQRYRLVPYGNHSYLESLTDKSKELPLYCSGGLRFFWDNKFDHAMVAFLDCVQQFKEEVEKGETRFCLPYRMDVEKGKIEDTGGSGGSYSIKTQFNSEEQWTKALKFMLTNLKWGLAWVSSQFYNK
UniProt P04785, residues 20-509: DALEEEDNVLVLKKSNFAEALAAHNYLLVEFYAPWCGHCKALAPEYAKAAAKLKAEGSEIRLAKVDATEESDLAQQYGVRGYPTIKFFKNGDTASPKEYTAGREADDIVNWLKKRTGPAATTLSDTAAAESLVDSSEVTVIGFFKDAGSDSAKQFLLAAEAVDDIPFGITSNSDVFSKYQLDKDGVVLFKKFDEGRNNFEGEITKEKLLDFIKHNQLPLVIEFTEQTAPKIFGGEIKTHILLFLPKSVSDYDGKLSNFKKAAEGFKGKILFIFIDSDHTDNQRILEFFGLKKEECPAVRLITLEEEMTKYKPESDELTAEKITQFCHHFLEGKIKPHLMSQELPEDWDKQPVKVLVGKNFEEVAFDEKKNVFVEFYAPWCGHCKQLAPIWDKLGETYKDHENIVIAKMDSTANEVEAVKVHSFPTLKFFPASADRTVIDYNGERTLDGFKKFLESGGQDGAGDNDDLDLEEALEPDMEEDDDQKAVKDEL

Results are given in words; binding and its absence hold for the method and conditions named. In cells and extracts the contact can be indirect. Some binding calls cover weakened binding; strength is not graded here.

The test concerns the target T1, aspartate aminotransferase (GOT2) (not stated (cells of the IP not named; H9C2 in the neighbouring experiments)) (UniProt P00507).
T1 sequence: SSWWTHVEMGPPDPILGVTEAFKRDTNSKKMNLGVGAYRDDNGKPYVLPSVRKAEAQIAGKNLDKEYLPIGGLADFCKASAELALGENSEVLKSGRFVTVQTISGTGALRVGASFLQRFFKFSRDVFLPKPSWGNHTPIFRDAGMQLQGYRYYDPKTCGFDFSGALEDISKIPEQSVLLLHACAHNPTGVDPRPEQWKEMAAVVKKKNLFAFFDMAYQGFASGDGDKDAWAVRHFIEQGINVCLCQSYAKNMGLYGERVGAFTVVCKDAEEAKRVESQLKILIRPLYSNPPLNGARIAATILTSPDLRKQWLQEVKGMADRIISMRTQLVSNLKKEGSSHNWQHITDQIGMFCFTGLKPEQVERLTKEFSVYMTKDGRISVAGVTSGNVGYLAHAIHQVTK
The test can be described thus: co-IP; IP of GOT2, partners detected by Western blotting; cells not named; X-ray or aloe emodin treatment. (In western blotting, separated proteins are transferred to a membrane and probed.)
As for VPS34 (from UniProt O88763 1-887), the binding result was “binds”.
Next, beclin1 (from UniProt Q91XJ1 1-448): “binds”.
To “protein disulfide‐isomerase (P4HB) (from UniProt P04785 20-509)” belongs “binds”.
